No constants are given. Whether binding was seen depends on the method and setting. Binding seen in cells or lysates may run through a third protein. Some binding calls cover weakened binding; strength is not graded here.
Columns and labels:
Myc-p65 = Myc-p65 (UniProt Q04206); assay: co-IP; COS-7 cells co-transfected with Myc-p65 and Flag-TonEBP; lysates immunoprecipitated with anti-Myc IgG or anti-Flag IgG, immunoblotted for TonEBP, Myc or Flag
Flag-TonEBP (human) = Flag-TonEBP (human) (UniProt O94916); assay: as above
[1] = molecular target: p65 subunit of NFκB, endogenous in MEF cells (mouse (endogenous in MEF)) (UniProt Q04207); assay: co-IP; MEF cell lysates (TonEBP+/+ or TonEBPΔ/Δ) immunoprecipitated with anti-p65 IgG or anti-TonEBP serum, immunoblotted for p300, TonEBP and p65; cells treated with vehicle or LPS (100 ng/ml), without or with cerulenin (10 μM)
[2] = molecular target: Tonicity-responsive enhancer binding protein (TonEBP), endogenous in MEF cells (mouse (endogenous in MEF)) (UniProt Q9WV30); assay: as above

The chains behind the UniProt entries cited, without tags or fusion partners.
UniProt Q04206: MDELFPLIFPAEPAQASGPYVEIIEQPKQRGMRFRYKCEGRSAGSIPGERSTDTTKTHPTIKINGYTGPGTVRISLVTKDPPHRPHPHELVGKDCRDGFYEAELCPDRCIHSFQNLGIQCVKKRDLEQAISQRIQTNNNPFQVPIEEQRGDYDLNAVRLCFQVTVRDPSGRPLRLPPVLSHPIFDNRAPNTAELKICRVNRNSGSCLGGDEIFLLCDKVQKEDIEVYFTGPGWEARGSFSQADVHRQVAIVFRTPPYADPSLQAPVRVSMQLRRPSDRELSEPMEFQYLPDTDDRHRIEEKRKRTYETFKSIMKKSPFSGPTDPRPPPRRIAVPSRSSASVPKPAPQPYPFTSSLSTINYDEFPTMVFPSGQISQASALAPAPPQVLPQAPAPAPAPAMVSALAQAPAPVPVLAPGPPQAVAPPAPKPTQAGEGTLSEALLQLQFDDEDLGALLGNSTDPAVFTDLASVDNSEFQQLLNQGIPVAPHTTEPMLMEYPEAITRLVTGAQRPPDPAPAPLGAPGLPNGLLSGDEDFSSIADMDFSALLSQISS
UniProt O94916: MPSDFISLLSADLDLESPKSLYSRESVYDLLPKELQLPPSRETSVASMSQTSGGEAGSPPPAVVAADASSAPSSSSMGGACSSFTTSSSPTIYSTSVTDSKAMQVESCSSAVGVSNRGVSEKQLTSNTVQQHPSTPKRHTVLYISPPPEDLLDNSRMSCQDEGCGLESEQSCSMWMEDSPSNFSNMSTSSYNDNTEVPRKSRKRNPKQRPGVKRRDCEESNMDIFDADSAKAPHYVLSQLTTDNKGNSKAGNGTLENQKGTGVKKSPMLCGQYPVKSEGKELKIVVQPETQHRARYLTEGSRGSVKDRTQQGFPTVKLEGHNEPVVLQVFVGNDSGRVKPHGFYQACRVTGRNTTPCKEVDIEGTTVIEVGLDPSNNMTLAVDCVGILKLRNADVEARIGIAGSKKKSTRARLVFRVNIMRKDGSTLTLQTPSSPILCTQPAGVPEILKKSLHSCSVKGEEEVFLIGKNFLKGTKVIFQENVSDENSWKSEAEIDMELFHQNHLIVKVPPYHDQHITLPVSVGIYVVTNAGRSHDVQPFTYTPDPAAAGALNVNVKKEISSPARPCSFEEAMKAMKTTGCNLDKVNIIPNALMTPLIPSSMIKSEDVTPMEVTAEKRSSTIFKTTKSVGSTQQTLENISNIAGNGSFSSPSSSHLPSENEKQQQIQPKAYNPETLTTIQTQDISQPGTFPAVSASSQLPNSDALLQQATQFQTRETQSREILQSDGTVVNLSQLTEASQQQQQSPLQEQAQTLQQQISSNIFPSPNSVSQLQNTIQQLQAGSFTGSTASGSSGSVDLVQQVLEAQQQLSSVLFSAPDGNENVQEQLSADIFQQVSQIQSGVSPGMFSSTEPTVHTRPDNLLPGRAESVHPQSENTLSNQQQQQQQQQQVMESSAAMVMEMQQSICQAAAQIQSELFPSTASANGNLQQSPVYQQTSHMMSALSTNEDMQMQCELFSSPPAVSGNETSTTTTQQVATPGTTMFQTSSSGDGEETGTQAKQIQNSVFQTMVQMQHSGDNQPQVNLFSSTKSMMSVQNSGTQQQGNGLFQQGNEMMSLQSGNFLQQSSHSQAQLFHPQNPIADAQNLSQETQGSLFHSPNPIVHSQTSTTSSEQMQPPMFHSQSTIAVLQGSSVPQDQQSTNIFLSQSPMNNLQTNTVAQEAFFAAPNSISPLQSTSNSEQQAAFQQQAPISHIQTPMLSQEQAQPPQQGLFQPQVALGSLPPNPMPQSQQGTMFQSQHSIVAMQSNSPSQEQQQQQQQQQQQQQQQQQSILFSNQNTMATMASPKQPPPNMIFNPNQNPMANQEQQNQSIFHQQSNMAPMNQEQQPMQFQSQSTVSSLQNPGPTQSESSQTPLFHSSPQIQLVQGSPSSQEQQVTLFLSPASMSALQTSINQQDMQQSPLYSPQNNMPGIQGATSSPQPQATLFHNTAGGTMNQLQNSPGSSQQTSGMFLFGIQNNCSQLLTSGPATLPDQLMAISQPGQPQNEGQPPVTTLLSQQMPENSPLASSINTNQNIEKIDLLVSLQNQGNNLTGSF
UniProt Q04207: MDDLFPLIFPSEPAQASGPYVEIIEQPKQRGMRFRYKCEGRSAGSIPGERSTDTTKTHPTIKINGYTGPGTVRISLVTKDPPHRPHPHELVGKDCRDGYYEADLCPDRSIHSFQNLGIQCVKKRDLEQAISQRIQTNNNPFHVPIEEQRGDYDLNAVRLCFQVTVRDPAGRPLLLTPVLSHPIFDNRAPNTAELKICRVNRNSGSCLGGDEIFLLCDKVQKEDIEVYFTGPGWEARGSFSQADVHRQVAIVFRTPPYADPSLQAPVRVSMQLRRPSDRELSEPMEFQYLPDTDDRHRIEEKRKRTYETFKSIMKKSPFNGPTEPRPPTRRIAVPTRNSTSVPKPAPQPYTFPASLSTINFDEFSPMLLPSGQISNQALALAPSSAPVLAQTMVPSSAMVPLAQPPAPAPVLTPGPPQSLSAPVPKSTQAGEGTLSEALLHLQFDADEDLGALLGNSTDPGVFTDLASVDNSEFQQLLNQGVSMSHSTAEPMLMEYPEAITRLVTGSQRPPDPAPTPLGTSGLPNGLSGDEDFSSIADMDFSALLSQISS
UniProt Q9WV30: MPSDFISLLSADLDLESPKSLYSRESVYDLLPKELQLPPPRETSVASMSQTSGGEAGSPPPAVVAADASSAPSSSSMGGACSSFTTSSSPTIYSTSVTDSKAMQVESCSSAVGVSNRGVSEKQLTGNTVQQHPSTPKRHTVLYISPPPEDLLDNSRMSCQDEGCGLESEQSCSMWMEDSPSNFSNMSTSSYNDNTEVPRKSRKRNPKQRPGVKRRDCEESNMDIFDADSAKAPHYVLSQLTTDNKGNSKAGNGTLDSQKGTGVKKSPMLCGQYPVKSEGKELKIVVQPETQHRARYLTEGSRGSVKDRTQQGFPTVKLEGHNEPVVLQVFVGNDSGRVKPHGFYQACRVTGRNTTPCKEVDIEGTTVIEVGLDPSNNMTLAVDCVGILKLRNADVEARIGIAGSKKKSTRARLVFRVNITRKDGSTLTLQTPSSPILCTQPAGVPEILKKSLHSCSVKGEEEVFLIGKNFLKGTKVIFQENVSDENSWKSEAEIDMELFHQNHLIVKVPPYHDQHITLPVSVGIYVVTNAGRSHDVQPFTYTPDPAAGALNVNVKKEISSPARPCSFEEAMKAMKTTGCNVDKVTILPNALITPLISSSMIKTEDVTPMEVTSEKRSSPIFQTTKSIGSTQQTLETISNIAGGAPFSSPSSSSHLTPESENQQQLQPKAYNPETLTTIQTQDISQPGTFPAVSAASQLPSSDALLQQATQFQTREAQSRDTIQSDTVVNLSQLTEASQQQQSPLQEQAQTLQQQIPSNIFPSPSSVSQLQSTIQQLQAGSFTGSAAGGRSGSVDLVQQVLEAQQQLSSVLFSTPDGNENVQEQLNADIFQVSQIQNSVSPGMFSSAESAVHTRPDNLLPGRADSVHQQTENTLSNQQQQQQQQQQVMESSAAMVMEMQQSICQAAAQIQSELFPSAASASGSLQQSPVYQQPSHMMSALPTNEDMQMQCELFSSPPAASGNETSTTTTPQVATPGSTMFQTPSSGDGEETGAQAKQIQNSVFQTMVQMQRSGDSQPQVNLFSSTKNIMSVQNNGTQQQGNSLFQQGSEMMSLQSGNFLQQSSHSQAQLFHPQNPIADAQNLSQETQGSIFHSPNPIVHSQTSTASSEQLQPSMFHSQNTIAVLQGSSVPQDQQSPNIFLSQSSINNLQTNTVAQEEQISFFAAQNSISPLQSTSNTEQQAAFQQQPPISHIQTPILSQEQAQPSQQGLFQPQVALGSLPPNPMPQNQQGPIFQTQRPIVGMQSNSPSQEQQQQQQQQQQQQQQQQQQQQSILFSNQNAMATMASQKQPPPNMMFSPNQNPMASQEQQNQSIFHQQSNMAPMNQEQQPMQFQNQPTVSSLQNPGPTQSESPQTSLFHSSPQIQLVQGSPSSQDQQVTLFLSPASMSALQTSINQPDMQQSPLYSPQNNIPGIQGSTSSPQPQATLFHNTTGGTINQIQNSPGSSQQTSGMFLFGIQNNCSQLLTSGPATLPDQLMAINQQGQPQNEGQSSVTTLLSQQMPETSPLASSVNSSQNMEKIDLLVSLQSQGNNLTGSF

Flag-TonEBP (from UniProt O94916 1-1531)
binding (Myc-p65): binds

Myc-p65 (from UniProt Q04206 1-551)
binding (Flag-TonEBP (human)): binds

Tonicity-responsive enhancer binding protein (TonEBP), endogenous in MEF cells (from UniProt Q9WV30 1-1534)
binding [1]: binds

p65 subunit of NFκB, endogenous in MEF cells (from UniProt Q04207 1-549)
binding [2]: binds

— publication PMC4847014
